# Patent US8008433B2 (Metabolic Pharmaceutical Limited, priority 2004, dated 2011)
# Bridges are numbered along the chain shown (N, C = ends).
# Test: peptide made by a vendor
# Conditions: whole synthesis
substance,measurement,value
H-YLRIVQCRSVEGSCGF-OH (disulfide 7-14; N-terminus and C-terminus assumed; SMILES CC[C@H](C)[C@H](NC(=O)[C@H](CCCNC(=N)N)NC(=O)[C@H](CC(C)C)NC(=O)[C@@H](N)Cc1ccc(O)cc1)C(=O)N[C@H](C(=O)N[C@@H](CCC(N)=O)C(=O)N[C@H]1CSSC[C@@H](C(=O)NCC(=O)N[C@@H](Cc2ccccc2)C(=O)O)NC(=O)[C@H](CO)NC(=O)CNC(=O)[C@H](CCC(=O)O)NC(=O)[C@H](C(C)C)NC(=O)[C@H](CO)NC(=O)[C@H](CCCNC(=N)N)NC1=O)C(C)C),purity (crude or final not stated),95%
